The other results are listed elsewhere or left out.
Columns and labels:
Test in all cases: glycan array binding signal (z-score within array); higher = stronger binding
Conditions in all cases: glycan notation: IUPAC condensed, linker removed
[1] = target: Gal(b1-4)GlcNAc(b1-3)Gal(b1-4)[Fuc(a1-3)]GlcNAc(b1-3)Gal(b1-4)[Fuc(a1-3)]GlcNAc
In short: (§1)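 Glycan array data came from 3228 arrays in the Consortium for Functional Glycomics database, and only arrays with an available protein sequence were kept. Glycan names were put into IUPAC-condensed notation, and columns mapping to the same glycan were averaged. The binding signal is a within-array Z-score, averaged across arrays of one protein sequence run at different concentrations or buffers and across linkers. A negative Z-score can be read as non-binding.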

[2] = target: Gal(b1-4)GlcNAc(b1-3)GalNAc
In short: as §1

[3] = target: Gal(b1-4)GlcNAc(b1-3)[Gal(b1-4)GlcNAc(b1-6)]Gal(b1-4)GlcNAc
In short: as §1

[4] = target: Gal(b1-4)GlcNAc(b1-3)[Gal(b1-4)GlcNAc(b1-6)]GalNAc
In short: as §1

[5] = target: Gal(b1-4)GlcNAc(b1-3)[GlcNAc(b1-6)]Gal(b1-4)GlcNAc
In short: as §1

[6] = target: Gal(b1-4)GlcNAc(b1-6)Gal(b1-4)GlcNAc
In short: as §1

[7] = target: Gal(b1-4)GlcNAc(b1-6)GalNAc
In short: as §1

[8] = target: Gal(b1-4)GlcNAc(b1-6)[Gal(b1-3)]GalNAc
In short: as §1

Gal3S(b1-3)GalNAc = target: Gal3S(b1-3)GalNAc
In short: as §1

Gal3S(b1-3)GlcNAc = target: Gal3S(b1-3)GlcNAc
In short: as §1

[9] = target: Gal3S(b1-3)[Fuc(a1-4)]GlcNAc
In short: as §1

Gal3S(b1-4)Glc = target: Gal3S(b1-4)Glc
In short: as §1

Gal3S(b1-4)Glc6S = target: Gal3S(b1-4)Glc6S
In short: as §1

Gal3S(b1-4)GlcNAc = target: Gal3S(b1-4)GlcNAc
In short: as §1

Gal3S(b1-4)GlcNAc6S = target: Gal3S(b1-4)GlcNAc6S
In short: as §1

[10] = target: Gal3S(b1-4)[Fuc(a1-3)]Glc
In short: as §1

[11] = target: Gal3S(b1-4)[Fuc(a1-3)]Glc6S
In short: as §1

Gal3S4S(b1-4)GlcNAc = target: Gal3S4S(b1-4)GlcNAc
In short: as §1

Gal3S6S(b1-4)GlcNAc = target: Gal3S6S(b1-4)GlcNAc
In short: as §1

Gal3S6S(b1-4)GlcNAc6S = target: Gal3S6S(b1-4)GlcNAc6S
In short: as §1

Gal4S(b1-4)GlcNAc = target: Gal4S(b1-4)GlcNAc
In short: as §1

Gal4S6S(b1-4)GlcNAc = target: Gal4S6S(b1-4)GlcNAc
In short: as §1

Gal6S(b1-4)Glc = target: Gal6S(b1-4)Glc
In short: as §1

Gal6S(b1-4)Glc6S = target: Gal6S(b1-4)Glc6S
In short: as §1

Gal6S(b1-4)GlcNAc = target: Gal6S(b1-4)GlcNAc
In short: as §1

Gal6S(b1-4)GlcNAc6S = target: Gal6S(b1-4)GlcNAc6S
In short: as §1

GalNAc(a1-3)Gal = target: GalNAc(a1-3)Gal
In short: as §1

GalNAc(a1-3)GalNAc = target: GalNAc(a1-3)GalNAc
In short: as §1

[12] = target: GalNAc(a1-3)GalNAc(a1-3)Gal(a1-4)Gal(b1-4)GlcNAc
In short: as §1

GalNAc(b1-3)Gal = target: GalNAc(b1-3)Gal
In short: as §1

[13] = target: GalNAc(b1-3)Gal(a1-4)Gal(b1-4)GlcNAc
In short: as §1

[14] = target: GalNAc(b1-3)Gal(a1-4)Gal(b1-4)GlcNAc(b1-3)Gal(b1-4)Glc
In short: as §1

[15] = target: GalNAc(b1-3)Gal(a1-6)Gal(b1-4)Glc
In short: as §1

GalNAc(b1-3)GalNAc = target: GalNAc(b1-3)GalNAc
In short: as §1

GalNAc(b1-4)GlcNAc = target: GalNAc(b1-4)GlcNAc
In short: as §1

[16] = target: GalNAc(b1-4)GlcNAc(b1-2)Man(a1-3)[GalNAc(b1-4)GlcNAc(b1-2)Man(a1-6)]Man(b1-4)GlcNAc(b1-4)GlcNAc
In short: as §1

Glc(a1-4)Glc = target: Glc(a1-4)Glc
In short: as §1

Glc(a1-6)Glc(a1-6)Glc = target: Glc(a1-6)Glc(a1-6)Glc
In short: as §1

Glc(b1-4)Glc = target: Glc(b1-4)Glc
In short: as §1

Glc(b1-6)Glc = target: Glc(b1-6)Glc
In short: as §1

GlcA(b1-3)Gal = target: GlcA(b1-3)Gal
In short: as §1

GlcA(b1-3)GlcNAc = target: GlcA(b1-3)GlcNAc
In short: as §1

GlcA(b1-6)Gal = target: GlcA(b1-6)Gal
In short: as §1

[17] = target: GlcNAc(a1-3)Gal(b1-4)GlcNAc
In short: as §1

[18] = target: GlcNAc(a1-4)Gal(b1-3)GlcNAc
In short: as §1

B1: CREG (Mus musculus), O88668 (protein)
chain: MAARAPELARSLLAALLAPALVALLVSPASGRGGRDHGDWDVDRRLPPLPPREDGPRVARFVTHVSDWGSLATISTIKEVRGWPFADIISISDGPPGEGTGEPYMYLSPLQQAVSDLQENPEATLTMSLAQTVYCRNHGFDPQSPLCVHIMMSGTVTKVNKTEEDYARDSLFVRHPEMKHWPSSHNWFFAKLKISRIWVLDYFGGPKVVTPEEYFNVTLQ
glycan array binding signal (z-score) [1]: -0.877
glycan array binding signal (z-score) [2]: -0.139
glycan array binding signal (z-score) [3]: -0.344
glycan array binding signal (z-score) [4]: -0.072
glycan array binding signal (z-score) [5]: -0.416
glycan array binding signal (z-score) [6]: -0.162
glycan array binding signal (z-score) [7]: 1.18
glycan array binding signal (z-score) [8]: -0.076
glycan array binding signal (z-score) (Gal3S(b1-3)GalNAc): 0.036
glycan array binding signal (z-score) (Gal3S(b1-3)GlcNAc): 0.636
glycan array binding signal (z-score) [9]: -1.04
glycan array binding signal (z-score) (Gal3S(b1-4)Glc): -0.026
glycan array binding signal (z-score) (Gal3S(b1-4)Glc6S): -0.488
glycan array binding signal (z-score) (Gal3S(b1-4)GlcNAc): -1.01
glycan array binding signal (z-score) (Gal3S(b1-4)GlcNAc6S): 0.604
glycan array binding signal (z-score) [10]: 1.16
glycan array binding signal (z-score) [11]: -0.481
glycan array binding signal (z-score) (Gal3S4S(b1-4)GlcNAc): -1.12
glycan array binding signal (z-score) (Gal3S6S(b1-4)GlcNAc): 1.52
glycan array binding signal (z-score) (Gal3S6S(b1-4)GlcNAc6S): 2.03
glycan array binding signal (z-score) (Gal4S(b1-4)GlcNAc): -0.336
glycan array binding signal (z-score) (Gal4S6S(b1-4)GlcNAc): 1.01
glycan array binding signal (z-score) (Gal6S(b1-4)Glc): 0.007
glycan array binding signal (z-score) (Gal6S(b1-4)Glc6S): -0.154
glycan array binding signal (z-score) (Gal6S(b1-4)GlcNAc): 0.82
glycan array binding signal (z-score) (Gal6S(b1-4)GlcNAc6S): 0.545
glycan array binding signal (z-score) (GalNAc(a1-3)Gal): -0.005
glycan array binding signal (z-score) (GalNAc(a1-3)GalNAc): 2.01
glycan array binding signal (z-score) [12]: -0.587
glycan array binding signal (z-score) (GalNAc(b1-3)Gal): -0.19
glycan array binding signal (z-score) [13]: 0.053
glycan array binding signal (z-score) [14]: 1.6
glycan array binding signal (z-score) [15]: -1.02
glycan array binding signal (z-score) (GalNAc(b1-3)GalNAc): 0.524
glycan array binding signal (z-score) (GalNAc(b1-4)GlcNAc): -0.002
glycan array binding signal (z-score) [16]: 2.87
glycan array binding signal (z-score) (Glc(a1-4)Glc): -1
glycan array binding signal (z-score) (Glc(a1-6)Glc(a1-6)Glc): -1.19
glycan array binding signal (z-score) (Glc(b1-4)Glc): -1.11
glycan array binding signal (z-score) (Glc(b1-6)Glc): -0.061
glycan array binding signal (z-score) (GlcA(b1-3)Gal): 0.668
glycan array binding signal (z-score) (GlcA(b1-3)GlcNAc): -0.256
glycan array binding signal (z-score) (GlcA(b1-6)Gal): -0.711
glycan array binding signal (z-score) [17]: 0.096
glycan array binding signal (z-score) [18]: 0.454

Source: the supplement of paper PMC8728848
